Assay results published in publication PMC9647857.

Protein sequences, listed by entry. Tags and fused reporters are not part of them.
UniProt Q13263: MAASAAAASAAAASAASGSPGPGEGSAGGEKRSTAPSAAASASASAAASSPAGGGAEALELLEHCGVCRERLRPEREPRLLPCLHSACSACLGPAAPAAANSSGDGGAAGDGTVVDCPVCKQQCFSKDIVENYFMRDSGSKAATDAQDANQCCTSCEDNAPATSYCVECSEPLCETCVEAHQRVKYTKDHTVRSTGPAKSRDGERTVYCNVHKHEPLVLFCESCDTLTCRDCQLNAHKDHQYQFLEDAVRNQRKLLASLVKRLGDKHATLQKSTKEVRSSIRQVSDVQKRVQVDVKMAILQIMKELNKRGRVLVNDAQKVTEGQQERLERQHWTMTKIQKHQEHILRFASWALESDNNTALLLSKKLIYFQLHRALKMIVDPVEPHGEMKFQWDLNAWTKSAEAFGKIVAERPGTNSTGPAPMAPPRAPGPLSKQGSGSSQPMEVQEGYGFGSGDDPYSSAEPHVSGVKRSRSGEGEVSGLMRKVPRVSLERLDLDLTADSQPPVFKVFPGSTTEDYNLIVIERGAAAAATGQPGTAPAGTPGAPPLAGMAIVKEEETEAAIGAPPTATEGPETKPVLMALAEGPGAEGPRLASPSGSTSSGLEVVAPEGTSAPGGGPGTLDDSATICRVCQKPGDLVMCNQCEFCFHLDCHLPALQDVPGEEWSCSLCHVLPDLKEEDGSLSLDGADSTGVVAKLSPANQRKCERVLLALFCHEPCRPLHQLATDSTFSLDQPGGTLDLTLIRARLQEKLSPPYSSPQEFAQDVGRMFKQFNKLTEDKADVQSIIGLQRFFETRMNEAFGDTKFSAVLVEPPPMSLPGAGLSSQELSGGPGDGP

T1: CSDE1 (human (endogenous in HepG2 and SK-HEP-1)) (UniProt O75534)
T1 sequence: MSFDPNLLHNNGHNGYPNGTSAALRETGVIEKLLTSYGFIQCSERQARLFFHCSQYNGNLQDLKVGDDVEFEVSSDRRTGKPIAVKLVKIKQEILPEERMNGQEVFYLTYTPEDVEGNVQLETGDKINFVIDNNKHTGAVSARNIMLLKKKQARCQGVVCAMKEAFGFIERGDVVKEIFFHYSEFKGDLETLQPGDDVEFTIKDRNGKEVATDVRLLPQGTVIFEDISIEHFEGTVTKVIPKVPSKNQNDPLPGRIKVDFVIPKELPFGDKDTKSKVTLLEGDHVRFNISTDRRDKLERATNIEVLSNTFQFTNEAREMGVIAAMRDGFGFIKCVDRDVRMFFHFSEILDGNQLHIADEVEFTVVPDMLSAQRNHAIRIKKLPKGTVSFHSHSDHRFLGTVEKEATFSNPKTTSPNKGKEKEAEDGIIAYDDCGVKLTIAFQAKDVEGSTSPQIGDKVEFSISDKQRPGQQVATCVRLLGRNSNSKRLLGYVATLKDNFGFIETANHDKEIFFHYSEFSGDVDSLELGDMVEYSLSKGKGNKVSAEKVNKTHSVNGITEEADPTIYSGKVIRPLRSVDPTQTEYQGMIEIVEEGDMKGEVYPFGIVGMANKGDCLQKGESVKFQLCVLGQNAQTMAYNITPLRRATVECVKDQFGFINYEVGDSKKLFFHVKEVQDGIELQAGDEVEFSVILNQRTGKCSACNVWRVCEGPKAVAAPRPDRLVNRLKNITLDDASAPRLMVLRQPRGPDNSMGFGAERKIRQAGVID

B1: HERC5 (protein, UniProt Q9UII4 1-1024)
chain: MERRSRRKSRRNGRSTAGKAAATQPAKSPGAQLWLFPSAAGLHRALLRRVEVTRQLCCSPGRLAVLERGGAGVQVHQLLAGSGGARTPKCIKLGKNMKIHSVDQGAEHMLILSSDGKPFEYDNYSMKHLRFESILQEKKIIQITCGDYHSLALSKGGELFAWGQNLHGQLGVGRKFPSTTTPQIVEHLAGVPLAQISAGEAHSMALSMSGNIYSWGKNECGQLGLGHTESKDDPSLIEGLDNQKVEFVACGGSHSALLTQDGLLFTFGAGKHGQLGHNSTQNELRPCLVAELVGYRVTQIACGRWHTLAYVSDLGKVFSFGSGKDGQLGNGGTRDQLMPLPVKVSSSEELKLESHTSEKELIMIAGGNQSILLWIKKENSYVNLKRTIPTLNEGTVKRWIADVETKRWQSTKREIQEIFSSPACLTGSFLRKRRTTEMMPVYLDLNKARNIFKELTQKDWITNMITTCLKDNLLKRLPFHSPPQEALEIFFLLPECPMMHISNNWESLVVPFAKVVCKMSDQSSLVLEEYWATLQESTFSKLVQMFKTAVICQLDYWDESAEENGNVQALLEMLKKLHRVNQVKCQLPESIFQVDELLHRLNFFVEVCRRYLWKMTVDASENVQCCVIFSHFPFIFNNLSKIKLLHTDTLLKIESKKHKAYLRSAAIEEERESEFALRPTFDLTVRRNHLIEDVLNQLSQFENEDLRKELWVSFSGEIGYDLGGVKKEFFYCLFAEMIQPEYGMFMYPEGASCMWFPVKPKFEKKRYFFFGVLCGLSLFNCNVANLPFPLALFKKLLDQMPSLEDLKELSPDLGKNLQTLLDDEGDNFEEVFYIHFNVHWDRNDTNLIPNGSSITVNQTNKRDYVSKYINYIFNDSVKAVYEEFRRGFYKMCDEDIIKLFHPEELKDVIVGNTDYDWKTFEKNARYEPGYNSSHPTIVMFWKAFHKLTLEEKKKFLVFLTGTDRLQMKDLNNMKITFCCPESWNERDPIRALTCFSVLFLPKYSTMETVEEALQEAINNNRGFG

Target: T1, CSDE1 (human (endogenous in HepG2 and SK-HEP-1))
Assay: affinity purification with mass spectrometry; IP-MS: HepG2 lysate precipitated with the CSDE1 antibody at 4°C overnight, Dynabeads Protein G, washed with NP-40 lysis buffer, LC-MS/MS

Molecule	binding
TRIM28 (from UniProt Q13263 1-835)	binds
B1	binds

No constants are given. Whether binding was seen depends on the method and setting. In cells and extracts the contact can be indirect. A yes stands for co-enrichment or nearness to the bait. Other partners may have been found.
